Measurements as given in the supplement of paper PMC12823440, “Inhibitors supercharge kinase turnover through native proteolytic circuits” (Nature, 2025).
The other results are listed elsewhere or left out. Hit calls seldom repeat between salt and free forms of one compound.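 Kinases were expressed as nanoluciferase fusions in K562 cells and luminescence was read every 4 h between 2 and 18 h as percent of control, DMSO set to 100% and a positive control to 0%. A time point counts as decreased when the signal drops significantly (2 sigma). The hit call is the authors' own, does not follow from the count of time points alone, and its rule is not shown.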

The chains behind the UniProt entries cited, without tags or fusion partners.
UniProt Q15303, whole entry R711C: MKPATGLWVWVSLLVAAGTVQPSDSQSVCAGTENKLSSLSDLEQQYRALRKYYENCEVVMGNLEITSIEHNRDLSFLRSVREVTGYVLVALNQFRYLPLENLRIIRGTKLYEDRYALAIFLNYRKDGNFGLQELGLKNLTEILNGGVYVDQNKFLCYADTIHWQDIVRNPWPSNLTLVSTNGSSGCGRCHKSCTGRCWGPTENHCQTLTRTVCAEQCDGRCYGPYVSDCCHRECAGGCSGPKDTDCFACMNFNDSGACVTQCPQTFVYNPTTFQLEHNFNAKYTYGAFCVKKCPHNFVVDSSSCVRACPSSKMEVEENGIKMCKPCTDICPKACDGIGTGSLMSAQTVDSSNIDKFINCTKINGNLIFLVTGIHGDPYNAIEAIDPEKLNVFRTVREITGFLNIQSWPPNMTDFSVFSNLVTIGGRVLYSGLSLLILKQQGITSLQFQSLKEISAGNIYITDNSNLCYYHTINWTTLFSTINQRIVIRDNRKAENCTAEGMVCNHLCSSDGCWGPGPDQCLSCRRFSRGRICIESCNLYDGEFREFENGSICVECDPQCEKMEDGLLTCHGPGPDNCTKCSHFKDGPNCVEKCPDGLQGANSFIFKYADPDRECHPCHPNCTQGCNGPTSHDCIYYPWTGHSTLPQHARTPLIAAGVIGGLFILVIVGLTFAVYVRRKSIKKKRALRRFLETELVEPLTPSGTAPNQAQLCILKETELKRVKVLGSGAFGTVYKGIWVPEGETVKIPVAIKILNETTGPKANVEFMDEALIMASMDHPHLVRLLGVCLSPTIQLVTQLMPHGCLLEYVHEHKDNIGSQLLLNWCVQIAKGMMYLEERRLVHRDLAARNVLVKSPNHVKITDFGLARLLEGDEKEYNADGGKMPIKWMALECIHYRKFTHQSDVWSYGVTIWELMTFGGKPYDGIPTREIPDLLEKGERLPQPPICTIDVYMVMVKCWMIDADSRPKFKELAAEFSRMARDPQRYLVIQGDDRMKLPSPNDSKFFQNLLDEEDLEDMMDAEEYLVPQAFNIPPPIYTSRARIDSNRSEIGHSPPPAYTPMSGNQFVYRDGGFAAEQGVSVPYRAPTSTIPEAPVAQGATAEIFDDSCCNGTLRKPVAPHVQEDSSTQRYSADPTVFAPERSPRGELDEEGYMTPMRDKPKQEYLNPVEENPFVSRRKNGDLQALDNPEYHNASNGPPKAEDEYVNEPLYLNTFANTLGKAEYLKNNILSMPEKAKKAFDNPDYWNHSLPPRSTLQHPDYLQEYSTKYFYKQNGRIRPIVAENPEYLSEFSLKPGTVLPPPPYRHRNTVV

target: ERBB4_R711C (clone: ERBB4_mut) (UniProt Q15303); experiment: kinase-Nluc reporter destabilization hit call (1 = scored as downregulated) (binary); higher = compound decreases kinase abundance; conditions: K562; 2-18 h

kinase-Nluc reporter destabilization hit call, inactive:
C=CC(=O)N1CCC(c2ccc(C(N)=O)c(-c3ccc(Oc4ccccc4)cc3)n2)CC1 [Orelabrutinib] (2.5 µM) 0, Cc1cc2c(F)c(Oc3ncnn4cc(OC[C@@H](C)OC(=O)[C@H](C)N)c(C)c34)ccc2[nH]1 [Brivanib (alaninate)] (10 µM) 0, CCC(F)(F)c1cc(N2CCC(S(C)(=O)=O)CC2)nc2sc(C(N)=O)c(N)c12 (10 µM) 0, NC(=O)c1c(NC(=O)C2CC2)sc2c1CCCC2 (10 µM) 0, CC(C)=CCC[C@](C)(O[C@@H]1O[C@H](CO[C@@H]2O[C@H](CO)[C@@H](O)[C@H](O)[C@H]2O)[C@@H](O)[C@H](O)[C@H]1O)[C@H]1CC[C@]2(C)[C@@H]1[C@H](O)C[C@@H]1[C@@]3(C)CC[C@H](O[C@@H]4O[C@H](CO)[C@@H](O)[C@H](O)[C@H]4O[C@@H]4O[C@H](CO)[C@@H](O)[C@H](O)[C@H]4O)C(C)(C)[C@@H]3CC[C@]12C [Ginsenoside Rb1] (10 µM) 0, COc1cccc(-c2cc(=O)c3ccccc3o2)c1N (10 µM) 0, C[C@@H]1COC(Nc2ccc3ncnc(Nc4ccc(OCc5nccs5)c(Cl)c4)c3c2)=N1 [Varlitinib] (10 µM) 0, Cc1nc(Nc2cnn(C3CCNCC3)c2)nc2c1N(C)C(=O)c1cc3ccccc3cc1N2C (2.5 µM) 0
